This is one part of the list.

Chains of the proteins cited; added tags and fusions are not shown. Lines headed by an entry give the natural chain unless they say otherwise; changes in a name come on top.
UniProt H0Y354, whole entry, looked up: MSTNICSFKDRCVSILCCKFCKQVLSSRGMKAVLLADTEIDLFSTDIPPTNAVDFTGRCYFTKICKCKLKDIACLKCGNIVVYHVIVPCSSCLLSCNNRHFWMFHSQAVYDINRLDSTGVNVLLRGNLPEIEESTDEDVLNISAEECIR
UniProt Q9NY74: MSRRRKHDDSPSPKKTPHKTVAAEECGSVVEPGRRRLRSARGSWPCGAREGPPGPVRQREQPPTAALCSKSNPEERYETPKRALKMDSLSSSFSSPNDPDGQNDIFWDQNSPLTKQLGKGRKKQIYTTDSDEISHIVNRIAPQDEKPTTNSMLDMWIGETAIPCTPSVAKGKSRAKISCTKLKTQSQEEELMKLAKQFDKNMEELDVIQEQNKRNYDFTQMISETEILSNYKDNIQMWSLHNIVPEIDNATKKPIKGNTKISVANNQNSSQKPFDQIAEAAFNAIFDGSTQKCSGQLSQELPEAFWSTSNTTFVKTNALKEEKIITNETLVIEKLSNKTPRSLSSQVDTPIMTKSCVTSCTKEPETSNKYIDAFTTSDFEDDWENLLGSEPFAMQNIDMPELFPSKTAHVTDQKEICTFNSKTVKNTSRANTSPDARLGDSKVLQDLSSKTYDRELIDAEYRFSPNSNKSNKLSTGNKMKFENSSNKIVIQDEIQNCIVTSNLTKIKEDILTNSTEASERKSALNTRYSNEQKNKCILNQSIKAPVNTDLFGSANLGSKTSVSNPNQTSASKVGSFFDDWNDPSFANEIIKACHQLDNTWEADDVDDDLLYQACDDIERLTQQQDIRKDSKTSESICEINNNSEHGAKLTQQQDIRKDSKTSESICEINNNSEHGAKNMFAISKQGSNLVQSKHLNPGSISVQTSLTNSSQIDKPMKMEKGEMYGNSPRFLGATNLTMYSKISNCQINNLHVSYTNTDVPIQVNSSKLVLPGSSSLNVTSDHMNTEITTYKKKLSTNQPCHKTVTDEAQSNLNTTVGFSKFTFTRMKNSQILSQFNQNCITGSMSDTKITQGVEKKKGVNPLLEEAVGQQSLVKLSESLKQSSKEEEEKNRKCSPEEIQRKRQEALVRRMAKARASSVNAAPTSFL
UniProt Q9H8W3: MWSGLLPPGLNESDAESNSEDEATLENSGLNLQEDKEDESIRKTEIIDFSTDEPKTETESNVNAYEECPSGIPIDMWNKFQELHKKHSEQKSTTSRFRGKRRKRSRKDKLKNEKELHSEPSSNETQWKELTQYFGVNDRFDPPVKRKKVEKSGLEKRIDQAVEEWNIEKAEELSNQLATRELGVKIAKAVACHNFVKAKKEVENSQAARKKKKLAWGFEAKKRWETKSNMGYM
UniProt Q96PV7: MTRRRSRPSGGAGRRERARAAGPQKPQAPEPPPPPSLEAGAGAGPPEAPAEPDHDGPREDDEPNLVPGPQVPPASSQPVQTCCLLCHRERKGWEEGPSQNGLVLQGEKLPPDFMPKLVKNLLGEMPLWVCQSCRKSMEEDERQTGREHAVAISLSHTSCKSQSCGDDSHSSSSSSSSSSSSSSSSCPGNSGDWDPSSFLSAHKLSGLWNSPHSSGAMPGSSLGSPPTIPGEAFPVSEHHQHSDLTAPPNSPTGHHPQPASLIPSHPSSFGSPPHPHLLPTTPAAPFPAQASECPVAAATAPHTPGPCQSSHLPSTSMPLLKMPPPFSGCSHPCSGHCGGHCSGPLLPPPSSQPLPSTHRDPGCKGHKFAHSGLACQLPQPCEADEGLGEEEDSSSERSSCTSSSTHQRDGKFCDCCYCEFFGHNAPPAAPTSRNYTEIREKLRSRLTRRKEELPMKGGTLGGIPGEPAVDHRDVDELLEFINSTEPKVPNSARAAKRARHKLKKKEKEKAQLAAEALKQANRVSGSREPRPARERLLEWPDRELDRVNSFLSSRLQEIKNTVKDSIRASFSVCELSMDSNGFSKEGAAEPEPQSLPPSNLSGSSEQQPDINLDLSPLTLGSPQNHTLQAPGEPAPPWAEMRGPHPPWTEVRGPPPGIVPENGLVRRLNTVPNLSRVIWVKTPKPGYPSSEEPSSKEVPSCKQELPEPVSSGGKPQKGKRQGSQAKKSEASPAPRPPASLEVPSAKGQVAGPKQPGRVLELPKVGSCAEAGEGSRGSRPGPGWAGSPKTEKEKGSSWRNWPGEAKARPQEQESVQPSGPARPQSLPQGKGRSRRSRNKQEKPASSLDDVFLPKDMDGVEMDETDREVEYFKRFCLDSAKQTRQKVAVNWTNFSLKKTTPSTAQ
UniProt Q9Y2D4: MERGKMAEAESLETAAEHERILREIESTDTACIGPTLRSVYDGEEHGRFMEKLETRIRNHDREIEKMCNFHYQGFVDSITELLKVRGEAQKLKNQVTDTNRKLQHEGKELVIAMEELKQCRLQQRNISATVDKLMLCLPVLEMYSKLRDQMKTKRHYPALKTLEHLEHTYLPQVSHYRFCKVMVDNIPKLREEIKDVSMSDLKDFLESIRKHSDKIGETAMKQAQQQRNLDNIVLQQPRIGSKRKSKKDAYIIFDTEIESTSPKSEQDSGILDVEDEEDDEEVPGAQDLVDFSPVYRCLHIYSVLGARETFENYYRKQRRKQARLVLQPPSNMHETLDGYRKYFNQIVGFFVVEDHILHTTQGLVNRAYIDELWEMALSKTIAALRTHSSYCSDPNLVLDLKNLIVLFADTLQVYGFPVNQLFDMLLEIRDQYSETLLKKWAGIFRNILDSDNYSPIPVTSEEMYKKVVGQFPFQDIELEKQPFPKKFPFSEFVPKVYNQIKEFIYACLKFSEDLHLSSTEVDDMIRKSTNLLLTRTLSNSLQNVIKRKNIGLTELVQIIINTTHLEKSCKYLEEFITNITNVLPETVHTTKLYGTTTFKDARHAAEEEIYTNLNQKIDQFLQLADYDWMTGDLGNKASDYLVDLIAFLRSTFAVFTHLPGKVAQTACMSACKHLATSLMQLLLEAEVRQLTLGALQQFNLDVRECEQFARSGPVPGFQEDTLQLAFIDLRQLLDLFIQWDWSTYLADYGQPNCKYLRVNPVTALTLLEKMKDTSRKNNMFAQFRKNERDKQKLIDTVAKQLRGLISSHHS
UniProt Q9P2D6: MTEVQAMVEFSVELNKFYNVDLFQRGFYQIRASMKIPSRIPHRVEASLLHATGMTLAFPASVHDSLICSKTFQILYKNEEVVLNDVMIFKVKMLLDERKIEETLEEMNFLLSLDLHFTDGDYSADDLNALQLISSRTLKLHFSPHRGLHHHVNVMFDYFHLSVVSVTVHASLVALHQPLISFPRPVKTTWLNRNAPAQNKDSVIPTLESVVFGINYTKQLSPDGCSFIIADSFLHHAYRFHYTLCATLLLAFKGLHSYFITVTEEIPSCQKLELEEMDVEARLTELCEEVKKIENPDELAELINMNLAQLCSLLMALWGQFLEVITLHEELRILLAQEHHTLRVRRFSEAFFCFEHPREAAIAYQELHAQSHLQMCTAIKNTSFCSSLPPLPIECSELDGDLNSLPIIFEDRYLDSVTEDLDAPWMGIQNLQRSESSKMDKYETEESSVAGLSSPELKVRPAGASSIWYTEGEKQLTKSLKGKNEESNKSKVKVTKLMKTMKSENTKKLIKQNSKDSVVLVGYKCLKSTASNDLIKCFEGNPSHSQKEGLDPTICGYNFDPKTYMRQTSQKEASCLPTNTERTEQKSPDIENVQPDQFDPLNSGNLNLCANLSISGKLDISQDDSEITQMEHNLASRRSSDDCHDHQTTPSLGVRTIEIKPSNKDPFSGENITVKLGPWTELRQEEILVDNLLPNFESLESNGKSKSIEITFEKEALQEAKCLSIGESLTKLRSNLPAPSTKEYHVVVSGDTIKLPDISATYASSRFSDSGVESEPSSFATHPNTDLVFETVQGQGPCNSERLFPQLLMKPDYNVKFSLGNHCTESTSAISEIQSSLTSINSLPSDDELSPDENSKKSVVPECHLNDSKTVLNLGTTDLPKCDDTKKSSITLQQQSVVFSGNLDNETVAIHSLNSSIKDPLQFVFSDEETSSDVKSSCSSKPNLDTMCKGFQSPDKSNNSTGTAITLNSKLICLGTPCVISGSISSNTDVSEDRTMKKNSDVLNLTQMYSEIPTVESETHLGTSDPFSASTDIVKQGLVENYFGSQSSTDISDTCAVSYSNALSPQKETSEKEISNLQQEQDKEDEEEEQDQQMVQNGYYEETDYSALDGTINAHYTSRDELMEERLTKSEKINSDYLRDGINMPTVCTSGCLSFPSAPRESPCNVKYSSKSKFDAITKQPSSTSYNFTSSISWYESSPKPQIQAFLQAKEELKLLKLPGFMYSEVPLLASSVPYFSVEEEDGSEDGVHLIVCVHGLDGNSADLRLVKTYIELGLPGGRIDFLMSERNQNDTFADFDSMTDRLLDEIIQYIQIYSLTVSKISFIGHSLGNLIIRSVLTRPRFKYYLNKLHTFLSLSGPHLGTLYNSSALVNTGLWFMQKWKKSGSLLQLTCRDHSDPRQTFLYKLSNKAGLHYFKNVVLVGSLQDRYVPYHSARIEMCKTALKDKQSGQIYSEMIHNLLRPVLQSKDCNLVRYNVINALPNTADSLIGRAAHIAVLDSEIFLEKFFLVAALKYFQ
UniProt Q969W3: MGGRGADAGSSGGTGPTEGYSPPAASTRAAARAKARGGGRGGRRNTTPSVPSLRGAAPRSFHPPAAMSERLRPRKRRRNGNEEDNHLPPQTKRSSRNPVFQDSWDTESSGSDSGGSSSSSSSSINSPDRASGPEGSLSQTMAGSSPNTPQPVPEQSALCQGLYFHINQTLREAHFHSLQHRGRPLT
UniProt O95718: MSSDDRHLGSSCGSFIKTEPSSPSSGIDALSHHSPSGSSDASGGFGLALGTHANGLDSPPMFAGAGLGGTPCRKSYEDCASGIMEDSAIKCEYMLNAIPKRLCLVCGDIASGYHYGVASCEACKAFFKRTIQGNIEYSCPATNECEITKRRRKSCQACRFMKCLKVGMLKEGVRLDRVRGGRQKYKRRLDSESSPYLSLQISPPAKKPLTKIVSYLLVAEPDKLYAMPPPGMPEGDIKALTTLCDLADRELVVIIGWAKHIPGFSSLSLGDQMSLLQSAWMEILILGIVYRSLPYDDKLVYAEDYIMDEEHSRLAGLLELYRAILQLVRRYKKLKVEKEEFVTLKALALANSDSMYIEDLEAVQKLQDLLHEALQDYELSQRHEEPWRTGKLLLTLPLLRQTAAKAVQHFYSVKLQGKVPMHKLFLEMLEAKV
UniProt Q9H790: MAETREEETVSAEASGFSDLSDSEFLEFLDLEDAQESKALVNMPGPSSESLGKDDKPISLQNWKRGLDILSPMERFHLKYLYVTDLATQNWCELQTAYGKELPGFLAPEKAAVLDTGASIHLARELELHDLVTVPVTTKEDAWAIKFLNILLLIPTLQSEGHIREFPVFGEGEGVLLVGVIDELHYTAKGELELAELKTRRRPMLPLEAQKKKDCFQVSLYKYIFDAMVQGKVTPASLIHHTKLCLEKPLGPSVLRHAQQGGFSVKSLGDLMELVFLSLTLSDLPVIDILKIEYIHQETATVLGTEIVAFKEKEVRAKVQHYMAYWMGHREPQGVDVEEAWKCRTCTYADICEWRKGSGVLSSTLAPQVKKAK
UniProt P00742, whole entry, looked up: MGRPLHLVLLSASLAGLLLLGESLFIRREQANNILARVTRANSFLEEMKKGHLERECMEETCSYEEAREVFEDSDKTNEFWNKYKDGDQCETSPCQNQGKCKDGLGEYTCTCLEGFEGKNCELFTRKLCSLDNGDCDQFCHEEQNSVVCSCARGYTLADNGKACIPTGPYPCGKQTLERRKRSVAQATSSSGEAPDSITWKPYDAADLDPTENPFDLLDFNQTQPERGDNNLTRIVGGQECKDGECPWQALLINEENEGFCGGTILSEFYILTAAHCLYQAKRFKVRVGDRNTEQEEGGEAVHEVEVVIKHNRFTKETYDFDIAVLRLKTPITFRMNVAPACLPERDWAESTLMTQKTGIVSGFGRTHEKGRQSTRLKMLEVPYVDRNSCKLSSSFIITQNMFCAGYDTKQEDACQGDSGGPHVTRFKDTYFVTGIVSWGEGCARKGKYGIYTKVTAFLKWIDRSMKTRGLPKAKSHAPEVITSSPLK
UniProt Q9BQ89: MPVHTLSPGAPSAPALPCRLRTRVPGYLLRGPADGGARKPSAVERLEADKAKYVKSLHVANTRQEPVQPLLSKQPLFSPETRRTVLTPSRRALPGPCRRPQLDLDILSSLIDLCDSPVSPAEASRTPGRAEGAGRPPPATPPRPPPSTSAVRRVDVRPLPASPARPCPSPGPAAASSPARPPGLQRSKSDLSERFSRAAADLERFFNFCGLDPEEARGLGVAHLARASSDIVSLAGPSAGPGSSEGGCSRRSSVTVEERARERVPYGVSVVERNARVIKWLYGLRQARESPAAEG
UniProt Q5XKK7: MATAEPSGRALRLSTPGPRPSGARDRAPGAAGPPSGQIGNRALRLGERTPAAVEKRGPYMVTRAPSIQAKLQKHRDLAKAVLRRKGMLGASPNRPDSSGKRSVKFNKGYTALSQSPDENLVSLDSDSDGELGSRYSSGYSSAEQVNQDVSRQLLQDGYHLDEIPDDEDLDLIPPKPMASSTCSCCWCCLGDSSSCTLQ

Compound in the first experiment: C1=CC2=C(C=CC(=C2)/C=C\3/C(=O)NC(=NCC4=CC=CS4)S3)N=C1
The experiment in a line: log2 fold change, soluble protein after heating vs DMSO (PISA); higher = thermal stabilisation; K562 lysate, 10 uM; active = over 0.2 and 3.5 SD of the protein, either way, in both replicates (recomputed). Summed up: (§1)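 Soluble protein was defined as the supernatant remaining after 21,000xg for 90 min, following pooling of heated aliquots and adjustment to 0.5% NP-40 at 4°C. Before that, crude K562 extract at 1 mg/mL protein in PBS pH 7.4 with 1 mM MgCl2 was treated with 10 μM compound for 30 min and heated for 3 min across 48°C-58°C. Quantification used TMTpro 16plex LC-MS/MS with channel sums equalised, and values are log-two fold changes in thermal stability relative to solvent controls from duplicates.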
For EWSR1 (UniProt H7BY36), the log2 fold change was inactive: -0.346.

As to FAH isoform 2 (UniProt P16930), the log2 fold change was inactive: -0.076.

As for FAM72C (UniProt H0Y354), the log2 fold change is inactive: 0.059. As for ETAA1 (UniProt Q9NY74), the log2 fold change was inactive: 0.039.

Consider ETV6 (UniProt P41212), for which the log2 fold change was inactive: -0.097. Same read-out and setting: the same measure for FAM49B, A0A1W2PRQ0: inactive: -0.106; for EXTL3 (UniProt O43909): inactive: 0.217. Same read-out and setting: the figure for FAM204A (UniProt Q9H8W3) is inactive: 0.11. For FAM193B (UniProt Q96PV7), the log2 fold change was inactive: -0.007. The same measure, in the same setting: the figure for EXOC6B (UniProt Q9Y2D4) is inactive: -0.053. Still for that read-out and setting: the figure for ETV5 isoform 2 (UniProt P41161) is inactive: -0.025.

Compound in the next experiment: C1=CC2=NC=CN=C2C=C1/C=C/3\C(=O)NC(=O)S3
Described as above. Summed up: as §1
Consider FAM219A (UniProt Q8IW50), for which the log2 fold change was inactive: 0.053. On to EWSR1 (UniProt H7BY36), for which the log2 fold change was inactive: 0.111.

Regarding FAM135A (UniProt Q9P2D6), the log2 fold change is inactive: -0.057. On the same count and under the same terms, the figure for FAH isoform 2 (UniProt P16930) is inactive: -0.088; for FAM104A isoform 2 (UniProt Q969W3) it is inactive: -0.14. Same read-out and setting: the figure for FAM49B, A0A1W2PRQ0 is inactive: 0.062; for ESRRB isoform 1 (UniProt O95718) it is inactive: -0.021; for EXO5 (UniProt Q9H790) it is inactive: -0.226. Still for that read-out and setting: the figure for F10 (UniProt P00742) is inactive: 0.037; for FAM110A (UniProt Q9BQ89) it is inactive: 0.064. On to F2 (UniProt P00734), for which the log2 fold change is inactive: 0.069. Turning to FAM219B (UniProt Q5XKK7), the log2 fold change was inactive: -0.053. Same read-out and setting: the same measure for FAM53C (UniProt Q9NYF3): inactive: 0.11.
